PubChem BioAssay AID1508588 – Peter MacCallum Cancer Centre – 2020

- Screen: 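Which gene losses make BRAF-mutant melanoma cells more responsive to vemurafenib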 (primary screen)
- Cell system: human WM266.4 melanoma cells (BRAF V600 mutant)
- Knock-down reagent: siRNA pool against human genes, 40 nM
- Time to read-out: 96 h from transfection to read-out
- Challenge: vemurafenib 300 nM (about IC25), added 48 h after transfection, for 48 h; comparison arm got DMSO vehicle only
- Read-out: 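Ratios to non-targeting siRNA for cell gain, counted as DAPI nuclei after minus before drug and averaged over two replicates, and for absorbance-read medium lactate per cell; both binned into fold-change classes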
- Direction: cell gain with vemurafenib: higher = more cell gain than with non-targeting siRNA; lactate per cell with vemurafenib: higher = more lactate made per cell
- Hit rule: 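a knock-down counts as enhancing when its fold-change classes with vehicle and with vemurafenib, taken together, show a stronger drug effect on cell gain or lactate per cell; exact class pairs not stated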
- Calls: active = enhances vemurafenib effect; inactive = no enhancement seen
Here is an unselected part of about 18,000 reagents tested. Of all reagents, 790 (4.4%) are marked active. 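Calls rest on a combination of fold-change classes in drug and vehicle arms, not all shown here.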 Reagents against one gene are numbered here. Reagent sequences are not shown.

| gene knocked down | pool no. | cell gain with vemurafenib | lactate per cell with vemurafenib | call |
| --- | --- | --- | --- | --- |
| SLC30A3 (GeneID 7781) | 1 | 0.71 | 1.18 | inactive |
| CLEC4C (GeneID 170482) | 1 | 0.42 | 1.94 | inactive |
| PRKCH (GeneID 5583) | 1 | 0.23 | 2.23 | inactive |
| CYP27A1 (GeneID 1593) | 1 | 0.29 | 0.88 | inactive |
| MTX2 (GeneID 10651) | 1 | 0.57 | 0.8 | inactive |
| NOP58 (GeneID 51602) | 1 | 0.39 | 1.16 | inactive |
| CSF2RB (GeneID 1439) | 1 | 0.53 | 0.64 | inactive |
| SLC25A40 (GeneID 55972) | 1 | 0.51 | 0.93 | inactive |
| ZCCHC13 (GeneID 389874) | 1 | 1.09 | 0.9 | inactive |
| CAT (GeneID 847) | 1 | 0.69 | 1.1 | inactive |
| FFAR3 (GeneID 2865) | 1 | 0.31 | 1.5 | inactive |
| UNC13A (GeneID 23025) | 1 | 0.3 | 1.12 | inactive |
| KLK10 (GeneID 5655) | 1 | 0.71 | 1.15 | inactive |
| GNAI3 (GeneID 2773) | 1 | 0.54 | 0.74 | inactive |
| MTO1 (GeneID 25821) | 1 | 0.52 | 0.4 | active |
| RNF183 (GeneID 138065) | 1 | 1.22 | 0.68 | inactive |
| SMOC2 (GeneID 64094) | 1 | 0.35 | 0.69 | inactive |
| MAT2B (GeneID 27430) | 1 | 0.62 | 0.9 | inactive |
| MIDEAS (GeneID 91748) | 1 | 0.3 | 2.14 | inactive |
| OR6C75 (GeneID 390323) | 1 | 0.64 | 1.24 | inactive |
| CHML (GeneID 1122) | 1 | -0.09 | 1.6 | inactive |
| OR52N4 (GeneID 390072) | 1 | 0.67 | 1.01 | inactive |
| TOR2A (GeneID 27433) | 1 | 0.2 | 1.95 | inactive |
| KRT9 (GeneID 3857) | 1 | 0.36 | 1.69 | inactive |
| EPS8L1 (GeneID 54869) | 1 | 0.42 | 0.86 | inactive |
| KRTAP3-2 (GeneID 83897) | 1 | 0.61 | 0.63 | inactive |
| ANTKMT (GeneID 65990) | 1 | 0.49 | 0.99 | inactive |
| FAM234B (GeneID 57613) | 1 | 0.54 | 1.02 | inactive |
| NDUFV2 (GeneID 4729) | 1 | 0.41 | 2.66 | inactive |
| PHF8 (GeneID 23133) | 1 | 0.4 | 2.05 | inactive |
| BAG5 (GeneID 9529) | 1 | 0.72 | 0.55 | inactive |
| HOOK1 (GeneID 51361) | 1 | 0.51 | 0.72 | inactive |
| LINC02145 (GeneID 401172) | 1 | 0.87 | 1.3 | inactive |
| NANOG (GeneID 79923) | 1 | -0.01 | 1.4 | inactive |
| SAYSD1 (GeneID 55776) | 1 | 0.21 | 0.29 | inactive |
| ADGRE5 (GeneID 976) | 1 | 0.1 | 1.42 | inactive |
| CCT3 (GeneID 7203) | 1 | 0.59 | 1.22 | inactive |
| RUNX2 (GeneID 860) | 1 | 0.46 | 0.6 | inactive |
| IFI16 (GeneID 3428) | 1 | 0.57 | 0.98 | inactive |
| KCTD3 (GeneID 51133) | 1 | 0.59 | 1.66 | inactive |
| INPP1 (GeneID 3628) | 1 | 0.55 | 1.24 | inactive |
| CDC37L1 (GeneID 55664) | 1 | 0.81 | 0.93 | inactive |
| KREMEN2 (GeneID 79412) | 1 | 0.6 | 0.81 | inactive |
| SPANXB1 (GeneID 728695) | 1 | -0.1 | 0.73 | inactive |
| SPANXB1 (GeneID 728695) | 2 | -0.02 | 1.29 | inactive |
| GNGT1 (GeneID 2792) | 1 | -0.07 | 0.98 | inactive |
| ZNF347 (GeneID 84671) | 1 | 0.34 | 1.24 | inactive |
| CTRB1 (GeneID 1504) | 1 | 0.15 | 1.56 | inactive |
| ERCC3 (GeneID 2071) | 1 | 0.82 | 0.63 | inactive |
| FBXO41 (GeneID 150726) | 1 | 0.19 | 0.8 | inactive |
| TRIM58 (GeneID 25893) | 1 | 0.59 | 0.57 | inactive |
| JRK (GeneID 8629) | 1 | 0.28 | 0.37 | active |
| VAC14 (GeneID 55697) | 1 | 0.57 | 1.32 | inactive |
| PRRX1 (GeneID 5396) | 1 | 0.75 | 0.89 | inactive |
| ANGPTL7 (GeneID 10218) | 1 | 0.49 | 1.37 | inactive |
| ZNF257 (GeneID 113835) | 1 | 0.36 | 2.06 | inactive |
| CELF5 (GeneID 60680) | 1 | -0.01 | 0.72 | inactive |
| NKX3-2 (GeneID 579) | 1 | 0.6 | 1.24 | inactive |
| CYLC2 (GeneID 1539) | 1 | 0.87 | 0.64 | inactive |
| CX3CL1 (GeneID 6376) | 1 | 0.98 | 0.84 | inactive |
| KIFBP (GeneID 26128) | 1 | 0.44 | 0.92 | inactive |
| TTLL10 (GeneID 254173) | 1 | 0.55 | 1.13 | inactive |
| SETDB2 (GeneID 83852) | 1 | 0.8 | 1.16 | inactive |
| ATL1 (GeneID 51062) | 1 | 0.59 | 0.71 | inactive |
| CFC1B (GeneID 653275) | 1 | 0.69 | 1.9 | inactive |
| ANKRD29 (GeneID 147463) | 1 | 0.75 | 1.03 | inactive |
| WDR41 (GeneID 55255) | 1 | 0.77 | 0.42 | inactive |
| PIM3 (GeneID 415116) | 1 | 0.63 | 1.48 | inactive |
| ZDHHC15 (GeneID 158866) | 1 | 0.89 | 0.45 | active |
| ETHE1 (GeneID 23474) | 1 | 0.5 | 1.18 | inactive |
| TDRD7 (GeneID 23424) | 1 | 0.27 | 0.89 | inactive |
| IL15RA (GeneID 3601) | 1 | 0.51 | 1.34 | inactive |
| HOXC11 (GeneID 3227) | 1 | 0.51 | 0.72 | inactive |
| KRT23 (GeneID 25984) | 1 | 0.94 | 0.77 | inactive |
| ZNF672 (GeneID 79894) | 1 | 0.05 | 1.34 | inactive |
| SERINC4 (GeneID 619189) | 1 | 0.48 | 1.4 | inactive |
| RSKR (GeneID 124923) | 1 | 0.7 | 0.43 | inactive |
| LRRC55 (GeneID 219527) | 1 | 0.84 | 0.59 | inactive |
| ADISSP (GeneID 54976) | 1 | 0.47 | 1.75 | inactive |
| TMSB15A (GeneID 11013) | 1 | 0.55 | 1.83 | inactive |
| RAG2 (GeneID 5897) | 1 | 0.39 | 1.27 | inactive |
| ZNF26 (GeneID 7574) | 1 | 0.98 | 0.86 | inactive |
| CSTF2T (GeneID 23283) | 1 | 0.28 | 1.96 | inactive |
| AFDN-DT (GeneID 653483) | 1 | 1.28 | 0.8 | inactive |
| C1orf21 (GeneID 81563) | 1 | 0.49 | 1.25 | inactive |
| ATG4C (GeneID 84938) | 1 | 0.16 | 1.27 | inactive |
| CDK12 (GeneID 51755) | 1 | 0.38 | 1.14 | inactive |
| ITSN2 (GeneID 50618) | 1 | 0.01 | 2.21 | inactive |
| NACA2 (GeneID 342538) | 1 | 1.32 | 0.88 | inactive |
| CHST12 (GeneID 55501) | 1 | 0.91 | 1.19 | inactive |
| ZNF491 (GeneID 126069) | 1 | 0.66 | 1.08 | inactive |
| ROGDI (GeneID 79641) | 1 | 0.05 | 1.2 | inactive |
| YWHAQ (GeneID 10971) | 1 | 0.48 | 0.42 | inactive |
| UGT2B11 (GeneID 10720) | 1 | 0.54 | 1.38 | inactive |
| AKT3 (GeneID 10000) | 1 | 0.33 | 1.6 | inactive |
| NUP210L (GeneID 91181) | 1 | 0.67 | 0.43 | inactive |
| CYB561D2 (GeneID 11068) | 1 | 0.72 | 0.69 | inactive |
| UTP15 (GeneID 84135) | 1 | 0.26 | 1.2 | inactive |
| GABRR3 (GeneID 200959) | 1 | 0.33 | 1.43 | inactive |
| DAXX (GeneID 1616) | 1 | 1.07 | 0.72 | inactive |
| EIF1AX (GeneID 1964) | 1 | 0.4 | 0.8 | inactive |
| REX1BD (GeneID 55049) | 1 | 0.96 | 0.76 | inactive |
| GCM2 (GeneID 9247) | 1 | 0.47 | 1.33 | inactive |
| ANAPC2 (GeneID 29882) | 1 | 0.61 | 1.12 | inactive |
| CNR2 (GeneID 1269) | 1 | 0.44 | 1.23 | inactive |
| PSMA8 (GeneID 143471) | 1 | 0.68 | 0.88 | inactive |
| SSH2 (GeneID 85464) | 1 | 0.78 | 0.7 | inactive |

Part of the list above, set out differently:
gene knocked down,pool no.,cell gain with vemurafenib,lactate per cell with vemurafenib,call
RSKR (GeneID 124923),1,0.7,0.43,inactive
LRRC55 (GeneID 219527),1,0.84,0.59,inactive
ADISSP (GeneID 54976),1,0.47,1.75,inactive
TMSB15A (GeneID 11013),1,0.55,1.83,inactive
RAG2 (GeneID 5897),1,0.39,1.27,inactive
ZNF26 (GeneID 7574),1,0.98,0.86,inactive
CSTF2T (GeneID 23283),1,0.28,1.96,inactive
AFDN-DT (GeneID 653483),1,1.28,0.8,inactive
C1orf21 (GeneID 81563),1,0.49,1.25,inactive
ATG4C (GeneID 84938),1,0.16,1.27,inactive
CDK12 (GeneID 51755),1,0.38,1.14,inactive
ITSN2 (GeneID 50618),1,0.01,2.21,inactive
NACA2 (GeneID 342538),1,1.32,0.88,inactive
CHST12 (GeneID 55501),1,0.91,1.19,inactive
